Measurements taken from ChEMBL document CHEMBL6127022, “Acid-sensitive prodrugs; a promising approach for site-specific and targeted drug release” (Eur J Med Chem, 2024).
Values after ≈ are worked out from the molar mass of the structure shown.

Legend:
Staphylococcus aureus [1] = test: microbe, parasite or virus in culture; settings: ATCC 33592
Staphylococcus aureus [2] = test: microbe, parasite or virus in culture; settings: 12 h

CN[C@H](CC(C)C)C(=O)N[C@H]1C(=O)N[C@@H](CC(N)=O)C(=O)N[C@H]2C(=O)N[C@H]3C(=O)N[C@H](C(=O)N[C@H](C(=O)O)c4cc(O)cc(O)c4-c4cc3ccc4O)[C@H](O)c3ccc(c(Cl)c3)Oc3cc2cc(c3O[C@@H]2O[C@H](CO)[C@@H](O)[C@H](O)[C@H]2O[C@H]2C[C@](C)(N)[C@H](O)[C@H](C)O2)Oc2ccc(cc2Cl)[C@H]1O [VANCOMYCIN]
MIC (Staphylococcus aureus [1]): 62.5 µg/mL (≈ 43.1 µM) | MIC (Staphylococcus aureus [2]): 7.81 µg/mL (≈ 5.39 µM)
